Measurements reported in PubChem BioAssay AID652259 (Drosophila RNAi Screening Center, 2013).

Screen: 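Genome-wide hunt for genes that control Wingless pathway activity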 (primary screen)
Cell system: Drosophila clone 8 imaginal disc epithelial cells
Reagents: long dsRNA against Drosophila genes
Treatment: pathway stimulated by co-transfected Wingless expression plasmid
Detection: 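Firefly luciferase from a tcf-site Wingless reporter, measured alongside co-transfected Renilla luciferase that tracks transfection; pathway stimulated by a Wingless plasmid; the firefly-to-Renilla ratio is not deposited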
Direction: firefly reporter light: higher = more Wg reporter light, before normalisation; Renilla control light: higher = more transfected or surviving cells
Call rule: 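Strong candidates differ from their plate mean by at least two out of four per-plate statistical tests; weak candidates meet just one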
Calls: active = candidate regulator (raises or lowers reporter); inactive = not a candidate
The deposit covers about 22,000 reagents; this is a random part of those with a known target gene and a result. Over the whole deposit, 233 (1.1%) were called active. 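Light values are raw, unnormalised plate reads; the ratio scores behind the reporter calls were not deposited.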 Unmarked entries are inactive. Not given: the amount of reagent, the time to read-out, the dose of the treatment.

Fpgs2 (Folylpolyglutamate synthase 2) [DRSC00600] gave firefly reporter light, replicate 1 = 2563; firefly reporter light, replicate 2 = 6141; Renilla control light, replicate 1 = 1225; Renilla control light, replicate 2 = 2240. Depletion of d-cup (davis-cup) [DRSC14846] came out at: firefly reporter light, replicate 1 = 16984; Renilla control light, replicate 1 = 5179. After knock-down of tim (timeless) [DRSC00841], the record shows firefly reporter light, replicate 1 = 12376; Renilla control light, replicate 1 = 5248. After knock-down of CG16995 [DRSC00480], the record shows firefly reporter light, replicate 1 = 2688; firefly reporter light, replicate 2 = 5932; Renilla control light, replicate 1 = 1034; Renilla control light, replicate 2 = 2227.

Already shown: entries from further up.
Fpgs2 (Folylpolyglutamate synthase 2) [DRSC00600] — firefly reporter light, replicate 1: 2563; firefly reporter light, replicate 2: 6141; Renilla control light, replicate 1: 1225; Renilla control light, replicate 2: 2240
d-cup (davis-cup) [DRSC14846] — firefly reporter light, replicate 1: 16984; Renilla control light, replicate 1: 5179

Additional records follow:
For l(3)76BDm (lethal (3) 76BDm) [DRSC11047], the values are firefly reporter light, replicate 1 = 5253; Renilla control light, replicate 1 = 2346. Against CG10749 [DRSC09798], the values are firefly reporter light, replicate 1 = 3244; Renilla control light, replicate 1 = 1880. Knock-down of CG34247 [DRSC09933] came out at: firefly reporter light, replicate 1 = 8981; Renilla control light, replicate 1 = 4573. CG31191 [DRSC13455] scored firefly reporter light, replicate 1 = 5046; Renilla control light, replicate 1 = 2476. CG31191 [DRSC15214] showed firefly reporter light, replicate 1 = 18652; Renilla control light, replicate 1 = 3042. For CG31191 [DRSC15215], the entry reads firefly reporter light, replicate 1 = 13925; Renilla control light, replicate 1 = 2120.

Against CG13527 [DRSC04169], the entry reads firefly reporter light, replicate 1 = 3421; firefly reporter light, replicate 2 = 7276; Renilla control light, replicate 1 = 601; Renilla control light, replicate 2 = 2562. For nxf2 (nuclear RNA export factor 2) [DRSC10403], the entry reads firefly reporter light, replicate 1 = 3350; Renilla control light, replicate 1 = 1464.
